These are yes or no findings as the source states them, for the method shown. In cells and extracts the contact can be indirect. Some entries that bind do so weakly or less than the wild type. Sequences can lack the tags named with a protein. Blank lines part the entries; values can stand above or below the molecule they belong to.
Tests used:
[1] = target: T1, Flag-DERL2 (derlin 2) (human (cDNA amplified from QBC939 cells)) (UniProt Q9GZP9); test: co-IP; 293T cells co-transfected with Flag-DERL2 and/or HA-BAG6 vectors, 48 h; lysate immunoprecipitated with anti-HA beads (Fig. 11B) or anti-Flag beads (Fig. 11C); western blot
T1 sequence: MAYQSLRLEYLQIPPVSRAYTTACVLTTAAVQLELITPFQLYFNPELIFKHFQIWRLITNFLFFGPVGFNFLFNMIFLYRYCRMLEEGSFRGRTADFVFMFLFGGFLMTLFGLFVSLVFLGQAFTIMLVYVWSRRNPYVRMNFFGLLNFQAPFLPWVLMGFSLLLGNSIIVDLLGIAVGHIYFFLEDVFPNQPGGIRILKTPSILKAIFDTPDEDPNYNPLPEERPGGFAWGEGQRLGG

Chains of the proteins cited; added tags and fusions are not shown.
UniProt P46379: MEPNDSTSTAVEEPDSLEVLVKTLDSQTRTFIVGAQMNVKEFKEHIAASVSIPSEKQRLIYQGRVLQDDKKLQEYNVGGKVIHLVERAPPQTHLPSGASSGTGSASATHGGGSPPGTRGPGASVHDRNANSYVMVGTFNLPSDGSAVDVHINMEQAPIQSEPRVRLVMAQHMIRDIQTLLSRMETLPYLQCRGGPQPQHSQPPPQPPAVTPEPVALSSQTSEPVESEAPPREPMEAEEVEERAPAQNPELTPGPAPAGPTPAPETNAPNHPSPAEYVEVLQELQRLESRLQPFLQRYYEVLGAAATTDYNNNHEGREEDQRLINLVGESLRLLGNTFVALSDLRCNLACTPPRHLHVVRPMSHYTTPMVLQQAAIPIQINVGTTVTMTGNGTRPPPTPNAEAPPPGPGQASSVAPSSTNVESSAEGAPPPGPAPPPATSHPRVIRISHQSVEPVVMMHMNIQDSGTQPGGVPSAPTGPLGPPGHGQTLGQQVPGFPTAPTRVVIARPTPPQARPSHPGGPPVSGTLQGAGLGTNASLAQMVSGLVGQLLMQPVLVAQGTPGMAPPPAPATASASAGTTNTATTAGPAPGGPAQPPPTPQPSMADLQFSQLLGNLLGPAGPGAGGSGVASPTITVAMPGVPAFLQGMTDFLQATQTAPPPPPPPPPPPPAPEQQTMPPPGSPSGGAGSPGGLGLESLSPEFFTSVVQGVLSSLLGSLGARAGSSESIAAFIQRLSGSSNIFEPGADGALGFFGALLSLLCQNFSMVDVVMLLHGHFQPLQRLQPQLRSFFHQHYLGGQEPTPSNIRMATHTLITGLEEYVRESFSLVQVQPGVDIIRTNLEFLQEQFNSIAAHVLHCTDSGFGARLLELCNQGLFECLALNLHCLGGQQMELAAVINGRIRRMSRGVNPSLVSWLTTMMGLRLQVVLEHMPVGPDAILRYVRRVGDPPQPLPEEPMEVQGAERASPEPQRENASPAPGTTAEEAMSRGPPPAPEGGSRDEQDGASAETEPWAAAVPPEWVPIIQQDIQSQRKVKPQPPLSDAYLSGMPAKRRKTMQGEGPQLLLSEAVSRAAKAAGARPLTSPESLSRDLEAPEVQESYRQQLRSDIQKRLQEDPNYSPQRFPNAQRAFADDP

[2] = target: HA-BAG6 (BAG cochaperone 6) (human) (UniProt P46379); test: as above

binding [1]: binds
Molecule: HA-BAG6 (BAG cochaperone 6) (from UniProt P46379 1-1132)

binding [2]: binds
B1: Flag-DERL2 (derlin 2) (protein, UniProt Q9GZP9 1-239)
chain: T1 sequence
